# Patent US4229448A, “5-Substituted picolinic acid derivatives and an anti-hypertensive composition containing the same” (Meuji Seika Kaisha Ltd., priority 1978, dated 1980)
# Structures can show the parent of a compound that is named as a salt. At least one read-out could not be matched to a standard name with certainty.
# Tested on: spontaneously hypertensive rats
# Test: Blood pressure changes, Direct Blood Pressure Measuring Method, oral administration (Table 1)
# Type: in vivo
# Details: 100 mg/kg orally
row,Compound,Maximum Depression in Blood Pressure
1,O=C(O)c1ccc(OCCCCCl)cn1 [Calcium Salt of 5-(4-Chlorobutoxy)picolinic Acid] [Calcium 5-(4-chlorobutoxy)picolinate],22.8%
2,"O=C(O)c1ccc(OCCCCC(F)(F)F)cn1 [Calcium Salt of 5-(5,5,5-Trifluoropentyloxy)picolinic Acid] [Calcium 5-(5,5,5-trifluoropentyloxy)picolinate]",26.9%
3,O=C(O)c1ccc(Oc2ccc(Cl)cc2)cn1 [Calcium Salt of 5-(p-Chlorophenoxy)picolinic Acid],23.5%
